The supplement of paper PMC6078165
± gives the standard deviation of the averaged measurements. Values are relative to the signal before dosing, not to a vehicle control; the signal also falls without drug.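 Fibroblast labels name human fibroblasts: mostly primary ones from tissues such as uterus (C12385, HUF), lung (H6013), bone (Hs27A), adrenal (HADF) and skin (WS1), plus mammary HMF and breast cancer-associated Hs343T. The cancer cells are basal-like or mesenchymal-like triple-negative breast cancer lines. The paper calls a changed response a hit when it shifts by more than 3x the replicate standard deviation. The tissue of the other fibroblasts is not given here.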

Test system: MDAMB468
Experiment: relative JC-1 red fluorescence (viability) vs pre-drug, coculture with fibroblast (fraction); higher = more viable cancer cells
Procedure: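 JC-1 labelled TNBC cells cocultured 1:1 (1,500 cells each) with CellTrace Violet stained primary or stromal fibroblasts in 384-well plates in FluoroBrite medium, treated with one of 42 anticancer drugs at 0.1, 1, 10 or 100 uM. JC-1 red fluorescence (mitochondrial integrity in cancer cells only) was read by plate reader every 8 h for 72 h. Values are normalised to each well's pre-drug value. The stock of one drug was tenfold lower, so its dose labels may be too high.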

C=C1C[C@@H]2[C@H](CC[C@]3(C)C(=O)CC[C@@H]23)[C@@]2(C)C=CC(=O)C=C12 [Exemestane]
relative JC-1 red fluorescence
Details | 8 h | 16 h | 24 h | 32 h | 40 h | 48 h | 56 h | 64 h | 72 h
10 µM, coculture fibroblast: C12385 | 0.894 ± 0.027 | 0.834 ± 0.044 | 0.831 ± 0.075 | 0.794 ± 0.082 | 0.765 ± 0.096 | 0.749 ± 0.09 | 0.692 ± 0.095 | 0.651 ± 0.096 | 0.632 ± 0.093
10 µM, coculture fibroblast: H6013 | 0.90124 ± 0.0003 | 0.841 ± 0.026 | 0.823 ± 0.0085 | 0.8103 ± 0.0066 | 0.779 ± 0.011 | 0.79 ± 0.022 | 0.762 ± 0.025 | 0.751 ± 0.042 | 0.697 ± 0.038
10 µM, coculture fibroblast: H6019 | 0.8506 ± 0.002 | 0.8218 ± 0.0045 | 0.793 ± 0.0094 | 0.738 ± 0.034 | 0.697 ± 0.042 | 0.68 ± 0.057 | 0.617 ± 0.041 | 0.586 ± 0.051 | 0.561 ± 0.055
10 µM, coculture fibroblast: H6076 | 0.939 ± 0.0063 | 0.97 ± 0.016 | 0.9366 ± 0.0054 | 0.9506 ± 0.0012 | 0.884 ± 0.018 | 0.874 ± 0.02 | 0.828 ± 0.03 | 0.813 ± 0.036 | 0.85 ± 0.045
10 µM, coculture fibroblast: H6231 | 0.843 ± 0.034 | 0.919 ± 0.065 | 0.9 ± 0.072 | 0.917 ± 0.075 | 0.857 ± 0.078 | 0.843 ± 0.076 | 0.805 ± 0.077 | 0.782 ± 0.082 | 0.792 ± 0.078
10 µM, coculture fibroblast: HADF | 0.906 ± 0.018 | 0.861 ± 0.0036 | 0.818 ± 0.012 | 0.812 ± 0.018 | 0.762 ± 0.026 | 0.738 ± 0.0094 | 0.692 ± 0.013 | 0.671 ± 0.011 | 0.612 ± 0.024
10 µM, coculture fibroblast: HCFa | 0.8946 ± 0.0055 | 0.812 ± 0.013 | 0.789 ± 0.027 | 0.761 ± 0.042 | 0.706 ± 0.045 | 0.704 ± 0.047 | 0.649 ± 0.049 | 0.615 ± 0.057 | 0.561 ± 0.047
10 µM, coculture fibroblast: HCPF | 0.862 ± 0.052 | 0.962 ± 0.025 | 0.888 ± 0.015 | 0.887 ± 0.015 | 0.807 ± 0.015 | 0.77 ± 0.027 | 0.714 ± 0.04 | 0.692 ± 0.043 | 0.675 ± 0.033
10 µM, coculture fibroblast: HHSteC | 0.92451 ± 0.00051 | 0.8664 ± 0.0054 | 0.8383 ± 0.0023 | 0.8245 ± 0.0026 | 0.785 ± 0.011 | 0.789 ± 0.013 | 0.721 ± 0.0093 | 0.695 ± 0.029 | 0.65 ± 0.021
10 µM, coculture fibroblast: HMF | 0.84 ± 0.014 | 0.967 ± 0.026 | 0.8746 ± 0.0021 | 0.871 ± 0.018 | 0.802 ± 0.0081 | 0.782 ± 0.025 | 0.727 ± 0.032 | 0.695 ± 0.041 | 0.671 ± 0.042
10 µM, coculture fibroblast: HPFa | 0.953 ± 0.011 | 0.895 ± 0.029 | 0.865 ± 0.034 | 0.813 ± 0.038 | 0.779 ± 0.036 | 0.768 ± 0.037 | 0.704 ± 0.049 | 0.668 ± 0.061 | 0.578 ± 0.064
10 µM, coculture fibroblast: HUF | 0.931 ± 0.015 | 0.853 ± 0.0097 | 0.7963 ± 0.0075 | 0.7347 ± 0.0044 | 0.68442 ± 0.00064 | 0.65 ± 0.0079 | 0.611 ± 0.015 | 0.588 ± 0.0076 | 0.561 ± 0.011
10 µM, coculture fibroblast: Hs5 | 0.88 ± 0.16 | 0.9792 ± 0.0053 | 0.96 ± 0.01 | 0.956 ± 0.018 | 0.906 ± 0.018 | 0.884 ± 0.014 | 0.84 ± 0.013 | 0.8051 ± 0.0034 | 0.8219 ± 0.002
10 µM, coculture fibroblast: Hs27A | 0.8818 ± 0.0015 | 0.8269 ± 0.0056 | 0.796 ± 0.021 | 0.807 ± 0.016 | 0.7494 ± 0.0026 | 0.7437 ± 0.0042 | 0.6934 ± 0.0016 | 0.671 ± 0.0094 | 0.612 ± 0.011
10 µM, coculture fibroblast: Hs343T | 0.881 ± 0.018 | 0.948 ± 0.049 | 0.918 ± 0.013 | 0.902 ± 0.012 | 0.851 ± 0.012 | 0.833 ± 0.015 | 0.775 ± 0.026 | 0.75 ± 0.021 | 0.715 ± 0.029
10 µM, coculture fibroblast: WS1 | 0.879 ± 0.014 | 0.786 ± 0.011 | 0.763 ± 0.046 | 0.703 ± 0.071 | 0.668 ± 0.082 | 0.638 ± 0.09 | 0.594 ± 0.091 | 0.554 ± 0.1 | 0.526 ± 0.11
100 µM, coculture fibroblast: C12385 | 0.886 ± 0.028 | 0.8459 ± 0.007 | 0.854 ± 0.013 | 0.807 ± 0.015 | 0.764 ± 0.011 | 0.75282 ± 5.9e-05 | 0.706 ± 0.0062 | 0.6686 ± 0.0042 | 0.636 ± 0.008
100 µM, coculture fibroblast: H6013 | 0.874 ± 0.023 | 0.8371 ± 0.0075 | 0.78 ± 0.0091 | 0.762 ± 0.0092 | 0.716 ± 0.034 | 0.703 ± 0.053 | 0.669 ± 0.083 | 0.641 ± 0.11 | 0.586 ± 0.13
100 µM, coculture fibroblast: H6019 | 0.8853 ± 0.0012 | 0.854 ± 0.03 | 0.814 ± 0.045 | 0.735 ± 0.046 | 0.667 ± 0.051 | 0.632 ± 0.076 | 0.567 ± 0.095 | 0.521 ± 0.1 | 0.495 ± 0.095
100 µM, coculture fibroblast: H6076 | 0.91 ± 0.02 | 0.933 ± 0.047 | 0.9059 ± 0.0015 | 0.923 ± 0.031 | 0.85 ± 0.036 | 0.85 ± 0.065 | 0.819 ± 0.087 | 0.804 ± 0.081 | 0.869 ± 0.11
100 µM, coculture fibroblast: H6231 | 0.8585 ± 0.0047 | 0.9249 ± 0.0083 | 0.876 ± 0.025 | 0.882 ± 0.014 | 0.823 ± 0.0093 | 0.795 ± 0.012 | 0.7435 ± 0.0041 | 0.716 ± 0.013 | 0.697 ± 0.013
100 µM, coculture fibroblast: HADF | 0.8882 ± 0.0044 | 0.866 ± 0.021 | 0.82 ± 0.062 | 0.821 ± 0.077 | 0.765 ± 0.066 | 0.728 ± 0.079 | 0.661 ± 0.07 | 0.637 ± 0.056 | 0.566 ± 0.055
100 µM, coculture fibroblast: HCFa | 0.886 ± 0.025 | 0.901 ± 0.059 | 0.867 ± 0.077 | 0.874 ± 0.083 | 0.812 ± 0.078 | 0.807 ± 0.063 | 0.745 ± 0.052 | 0.701 ± 0.057 | 0.647 ± 0.065
100 µM, coculture fibroblast: HCPF | 0.9242 ± 0.0078 | 0.919 ± 0.071 | 0.946 ± 0.022 | 0.931 ± 0.01 | 0.864 ± 0.033 | 0.843 ± 0.042 | 0.79 ± 0.043 | 0.775 ± 0.05 | 0.77 ± 0.051
100 µM, coculture fibroblast: HHSteC | 0.8906 ± 0.0081 | 0.8738 ± 0.0086 | 0.855 ± 0.017 | 0.848 ± 0.012 | 0.811 ± 0.014 | 0.8133 ± 0.0031 | 0.721 ± 0.038 | 0.682 ± 0.054 | 0.609 ± 0.053
100 µM, coculture fibroblast: HMF | 0.869 ± 0.014 | 0.9772 ± 0.0086 | 0.94 ± 0.016 | 0.912 ± 0.015 | 0.8405 ± 0.0032 | 0.816 ± 0.014 | 0.764 ± 0.034 | 0.737 ± 0.043 | 0.714 ± 0.053
100 µM, coculture fibroblast: HPFa | 0.9276 ± 0.0027 | 0.8852 ± 0.0022 | 0.858 ± 0.011 | 0.809 ± 0.017 | 0.767 ± 0.013 | 0.7742 ± 0.0027 | 0.707 ± 0.028 | 0.682 ± 0.045 | 0.611 ± 0.06
100 µM, coculture fibroblast: HUF | 0.9246 ± 0.004 | 0.843 ± 0.0098 | 0.826 ± 0.018 | 0.7701 ± 0.0015 | 0.7352 ± 0.0018 | 0.716 ± 0.013 | 0.659 ± 0.01 | 0.6394 ± 0.0014 | 0.6071 ± 0.00096
100 µM, coculture fibroblast: Hs5 | 0.98 ± 0.026 | 0.918 ± 0.038 | 0.925 ± 0.024 | 0.93 ± 0.0094 | 0.884 ± 0.026 | 0.873 ± 0.024 | 0.845 ± 0.02 | 0.813 ± 0.01 | 0.8376 ± 0.0057
100 µM, coculture fibroblast: Hs27A | 0.8497 ± 0.0014 | 0.816 ± 0.024 | 0.743 ± 0.04 | 0.739 ± 0.039 | 0.67 ± 0.055 | 0.653 ± 0.052 | 0.576 ± 0.063 | 0.521 ± 0.071 | 0.439 ± 0.064
100 µM, coculture fibroblast: Hs343T | 0.878 ± 0.015 | 0.899 ± 0.038 | 0.893 ± 0.07 | 0.899 ± 0.067 | 0.828 ± 0.073 | 0.81 ± 0.08 | 0.777 ± 0.057 | 0.771 ± 0.057 | 0.765 ± 0.046
100 µM, coculture fibroblast: WS1 | 0.903 ± 0.041 | 0.879 ± 0.071 | 0.847 ± 0.09 | 0.79 ± 0.096 | 0.729 ± 0.088 | 0.675 ± 0.064 | 0.649 ± 0.067 | 0.601 ± 0.071 | 0.589 ± 0.063
